Binding data for 1 substance are collected here from article PMC8096781.

Sequences of proteins named here, by UniProt entry; tags and fusion partners are left off.
UniProt P14618: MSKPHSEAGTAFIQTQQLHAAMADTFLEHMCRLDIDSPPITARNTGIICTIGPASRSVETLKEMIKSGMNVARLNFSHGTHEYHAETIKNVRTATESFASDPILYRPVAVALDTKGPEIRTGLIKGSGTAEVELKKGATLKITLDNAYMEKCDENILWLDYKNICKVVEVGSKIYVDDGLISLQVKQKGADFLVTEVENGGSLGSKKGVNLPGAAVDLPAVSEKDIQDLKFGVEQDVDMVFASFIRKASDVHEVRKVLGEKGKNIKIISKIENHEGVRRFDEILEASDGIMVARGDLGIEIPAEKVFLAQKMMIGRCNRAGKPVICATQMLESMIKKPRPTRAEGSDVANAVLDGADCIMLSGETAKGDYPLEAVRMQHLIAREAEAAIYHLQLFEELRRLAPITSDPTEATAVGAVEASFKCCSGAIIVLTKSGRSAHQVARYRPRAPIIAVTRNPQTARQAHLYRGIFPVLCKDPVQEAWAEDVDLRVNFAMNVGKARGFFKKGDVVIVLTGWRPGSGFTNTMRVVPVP

The test addresses T1, Flag-FOXM1D (overexpressed in HeLa cells) (UniProt Q08050).
T1 sequence: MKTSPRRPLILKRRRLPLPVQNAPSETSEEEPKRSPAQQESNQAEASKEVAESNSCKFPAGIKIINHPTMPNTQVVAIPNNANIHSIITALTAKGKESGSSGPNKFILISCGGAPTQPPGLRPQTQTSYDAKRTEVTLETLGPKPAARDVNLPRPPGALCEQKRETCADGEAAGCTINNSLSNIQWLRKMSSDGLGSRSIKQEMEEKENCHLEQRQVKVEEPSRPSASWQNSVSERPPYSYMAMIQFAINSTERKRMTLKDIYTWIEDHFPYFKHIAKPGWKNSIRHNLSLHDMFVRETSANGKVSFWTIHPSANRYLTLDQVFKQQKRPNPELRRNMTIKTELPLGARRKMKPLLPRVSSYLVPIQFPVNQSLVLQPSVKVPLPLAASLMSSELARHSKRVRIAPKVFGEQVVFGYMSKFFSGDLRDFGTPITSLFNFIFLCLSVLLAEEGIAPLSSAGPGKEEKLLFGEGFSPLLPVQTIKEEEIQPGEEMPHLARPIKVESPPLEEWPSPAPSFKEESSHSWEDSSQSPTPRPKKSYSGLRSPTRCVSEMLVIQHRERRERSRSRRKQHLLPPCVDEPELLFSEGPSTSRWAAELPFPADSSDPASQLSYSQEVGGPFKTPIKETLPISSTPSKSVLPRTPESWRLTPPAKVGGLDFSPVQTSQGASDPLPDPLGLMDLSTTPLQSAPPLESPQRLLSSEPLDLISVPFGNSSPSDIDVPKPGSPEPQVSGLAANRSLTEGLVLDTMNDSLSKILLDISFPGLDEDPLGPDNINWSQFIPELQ
Kind of test: affinity purification with mass spectrometry; Co-IP with rabbit anti-Flag antibody or rabbit control IgG isotype antibody from HeLa cells overexpressing Flag-FOXM1D, then LC-MS/MS.

Results are given in words; binding and its absence hold for the method and conditions named. In cells and extracts the contact can be indirect. A yes stands for co-enrichment or nearness to the bait. Other partners may have been found. Sequences can lack the tags named with a protein.

For “endogenous PKM2 (HeLa cells) (from UniProt P14618 1-531) (enzyme)”, the binding result is reported as “binds”.
